# This is one part of the list.
# Molecular target: T1, OsSMF1 (Oryza sativa, UniProt Q6ZLB0 1-436)
# T1 sequence: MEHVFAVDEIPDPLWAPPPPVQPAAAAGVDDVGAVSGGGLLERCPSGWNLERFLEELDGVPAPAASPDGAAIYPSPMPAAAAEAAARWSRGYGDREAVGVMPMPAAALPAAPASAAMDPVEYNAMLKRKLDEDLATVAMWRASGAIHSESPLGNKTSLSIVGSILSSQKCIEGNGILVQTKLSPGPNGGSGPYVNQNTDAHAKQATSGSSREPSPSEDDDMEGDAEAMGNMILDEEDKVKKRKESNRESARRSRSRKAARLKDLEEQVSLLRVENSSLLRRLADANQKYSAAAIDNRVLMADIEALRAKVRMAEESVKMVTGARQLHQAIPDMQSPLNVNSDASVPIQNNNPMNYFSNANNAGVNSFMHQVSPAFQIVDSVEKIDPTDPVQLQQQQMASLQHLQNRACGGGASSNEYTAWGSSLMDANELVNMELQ
# Assay: protein-binding microarray (RPBM); PBS, 2% BSA, 51.3 ng/ul salmon testes DNA, 50 uM zinc acetate, 200 nM TF, 25 C, 1 h; high values mean tight binding
# Settings: protein: recombinant; tags: N-terminal polyhistidine and DsRed monomer fusion (pET32a); chain copies: 2; label: CyDye5-dUTP incorporated in the synthesized complementary strand; 3' TTTTT single-stranded linker to array surface; dsDNA, one strand shown
# Procedure, shortened: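 An Axon 4000B scanner gave the binding signal as per-feature fluorescence intensity in arbitrary units. This followed washing of a custom Agilent array that had been incubated for 1 h at 25 °C with 200 nM protein in PBS, 2% BSA, salmon testes DNA and 50 µM zinc acetate. The proteins were transcription factors fused at the N-terminus to polyhistidine and DsRed, expressed in E. coli BL21-CodonPlus and purified on Ni–NTA.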
row,Sequence,binding signal
1,CTCATTCGAACTCACCGCGTCACCGTGACTTTGGCGGCGTCGGAGTCACCTAGTGCAG,5740 fluorescence intensity (a.u.)
2,TACACTGGTCAGATTCGGAAGTTCCGGCACAGTCAGACTGCGGAGTCACCTAGTGCAG,3990 fluorescence intensity (a.u.)
3,AATTTGGTCTCTACTTTCTTTTGTCATTGAAATGATGAATCGGAGTCACCTAGTGCAG,5660 fluorescence intensity (a.u.)
4,AAGCCTTGCTTTGAAATTCCAATTGGACACGTGTCGCATACGGAGTCACCTAGTGCAG,8130 fluorescence intensity (a.u.)
5,GTCCTTTCAGTCTGTGTCTCGTCATCGCGGCGGTATAAATCGGAGTCACCTAGTGCAG,4710 fluorescence intensity (a.u.)
6,TCAATTTTAATGCCACCTGTGCGCCATGTCAACGGCATACCGGAGTCACCTAGTGCAG,6490 fluorescence intensity (a.u.)
7,GACTTGGCCACATCGTTCACACACTTCACTCACACGAGAGCGGAGTCACCTAGTGCAG,14400 fluorescence intensity (a.u.)
8,ACATCGGCGGTGGGGCAAGGTGGTGCATGCATAGGTAGGACGGAGTCACCTAGTGCAG,19500 fluorescence intensity (a.u.)
9,GATGGCGCTCACACGGCGGCGTGGCGCAGCGCCGATGGCGCGGAGTCACCTAGTGCAG,3410 fluorescence intensity (a.u.)
10,CTTTCTTAATCTAATTTGTGTTTTCTTGACTGTCACGTGCCGGAGTCACCTAGTGCAG,3340 fluorescence intensity (a.u.)
11,TGGTGTGAAGAGTGGGACCCACAGGTCAGCCTCATCTGCTCGGAGTCACCTAGTGCAG,3540 fluorescence intensity (a.u.)
12,CGTATATGTATATATACATACTTTATACACATATATATACCGGAGTCACCTAGTGCAG,3360 fluorescence intensity (a.u.)
13,GTCATGAGCGACATGATGTGCCTCCACATCGCCATGGCTCCGGAGTCACCTAGTGCAG,3680 fluorescence intensity (a.u.)
14,TTGCAGCATTCAGCTCGCGTATACACGACCTTAAATTACGCGGAGTCACCTAGTGCAG,3320 fluorescence intensity (a.u.)
15,AGGTGATGAAGACCCACGACGCCGCGTTCGCCACCCGGGCCGGAGTCACCTAGTGCAG,17000 fluorescence intensity (a.u.)
16,CGACTGTGAGCCCTCCGTTCTCGCCGCGGAAGGATCCCTCCGGAGTCACCTAGTGCAG,29700 fluorescence intensity (a.u.)
17,AAAATAGAAAGCCAATTCCTCCCCGTGTCGGCCACTTCTCCGGAGTCACCTAGTGCAG,3360 fluorescence intensity (a.u.)
18,AGCGAAGGAATGGGAGCTCGACACGGCTGTCTGCTGCCACCGGAGTCACCTAGTGCAG,3300 fluorescence intensity (a.u.)
19,TTCATCCATCCTTGCTCCACGTCCCAATCTCCTCCTCCTCCGGAGTCACCTAGTGCAG,7980 fluorescence intensity (a.u.)
20,ACATCCACAACCATCTCCACCTCACCTCGTCCATCGTCTCCGGAGTCACCTAGTGCAG,6010 fluorescence intensity (a.u.)
21,ATTTGTGGGCCCCACTGCCAGTGACTCTTCTGTCCACTGCCGGAGTCACCTAGTGCAG,4390 fluorescence intensity (a.u.)

row,Sequence,binding signal
1,AATATTTGCGACTTGGTACGTTGCGTCCCATAGCCTCACTCGGAGTCACCTAGTGCAG,3590 fluorescence intensity (a.u.)
2,TAGGTCATTCTAACATTTTCCACATTAATATGCATGTTACCGGAGTCACCTAGTGCAG,29200 fluorescence intensity (a.u.)
3,CTGTAGGTGAGTGACACTAGTACTCATCATCATCATCATCCGGAGTCACCTAGTGCAG,4600 fluorescence intensity (a.u.)
4,CCCCGACGCCTTCGTCCAGGCGAGAAGGCCAAGCGTCCTCCGGAGTCACCTAGTGCAG,34100 fluorescence intensity (a.u.)
5,ATACTGTTTCTTGTCGATCTATTGTCAATTTGTCATAGTACGGAGTCACCTAGTGCAG,3750 fluorescence intensity (a.u.)
6,GCGCGGCGGTGCGGCGGCGGCGGCGGCGTCATGTACCTCCCGGAGTCACCTAGTGCAG,4710 fluorescence intensity (a.u.)
7,ACCGGCGGCGGTGACCTAATGTCATGTCATGTCAGTAATGCGGAGTCACCTAGTGCAG,5160 fluorescence intensity (a.u.)
8,TGATGGCTCTTGCACTGTCATGCGGCTGCACAGATGTTTCCGGAGTCACCTAGTGCAG,4090 fluorescence intensity (a.u.)
9,TACTCACTAGTAGAACACATGGCCCACTGAATAGTGGGACCGGAGTCACCTAGTGCAG,23300 fluorescence intensity (a.u.)
10,TCGCCCATCCACGACAGGTTCCCAAGAGTGCCTCCGCTGGCGGAGTCACCTAGTGCAG,3470 fluorescence intensity (a.u.)
11,TGGGAGTGCGTGGTGTGCGTGGCGTCGGTTCTTGCGGAGGCGGAGTCACCTAGTGCAG,5410 fluorescence intensity (a.u.)
12,AGGATGTCACACGTACACTTTTCCTTACGAAATTTCCTTACGGAGTCACCTAGTGCAG,3530 fluorescence intensity (a.u.)
13,AAACCAGCCGCCCCGCAACCCAACAGCTATCTTTTCCCATCGGAGTCACCTAGTGCAG,3500 fluorescence intensity (a.u.)
14,GACCTGATGCAGCTGAGCCCGTGCGTCAGCGCGTTCTCCGCGGAGTCACCTAGTGCAG,3400 fluorescence intensity (a.u.)
15,GCCAAACGCGCCAGATCCGCGCCTCCTCCACTCACACGCGCGGAGTCACCTAGTGCAG,3360 fluorescence intensity (a.u.)
16,TGTGTGTGTGTGTGTTGAATCATCCGACATCGTGCTATTACGGAGTCACCTAGTGCAG,3710 fluorescence intensity (a.u.)
17,CGCCTCGTCATCGTCGTCGGCCCGGTTGCCCACCTCTTCACGGAGTCACCTAGTGCAG,6740 fluorescence intensity (a.u.)
18,CTGCATGCGTATATACGACCGTGTGCATGCATATGCATGGCGGAGTCACCTAGTGCAG,3880 fluorescence intensity (a.u.)
19,TATTACCCTGAGTAGACGATTGACTCATTATATAATGATGCGGAGTCACCTAGTGCAG,3320 fluorescence intensity (a.u.)
20,CTTTTCCAGTGACGCGTGCAGTTTACCAACCACCTGCTCTCGGAGTCACCTAGTGCAG,7150 fluorescence intensity (a.u.)
21,AGGTGGAACCCGGTGGCCACGTCGCCGGCGGTGACGGCCGCGGAGTCACCTAGTGCAG,5720 fluorescence intensity (a.u.)

# Part of the list above, as tab-separated lines.
row	Sequence	binding signal
15	AGGTGATGAAGACCCACGACGCCGCGTTCGCCACCCGGGCCGGAGTCACCTAGTGCAG	17000 fluorescence intensity (a.u.)
16	CGACTGTGAGCCCTCCGTTCTCGCCGCGGAAGGATCCCTCCGGAGTCACCTAGTGCAG	29700 fluorescence intensity (a.u.)
17	AAAATAGAAAGCCAATTCCTCCCCGTGTCGGCCACTTCTCCGGAGTCACCTAGTGCAG	3360 fluorescence intensity (a.u.)

# Source: PMC7819943, “Rice protein-binding microarrays: a tool to detect cis-acting elements near promoter regions in rice”
